The supplement of paper PMC10849652
The other results are listed elsewhere or left out.

The chains behind the UniProt entries cited, without tags or fusion partners. Where a name states a change or a piece, a line headed by the entry shows the natural chain unless it says otherwise.
UniProt Q9NYJ1, whole entry, looked up: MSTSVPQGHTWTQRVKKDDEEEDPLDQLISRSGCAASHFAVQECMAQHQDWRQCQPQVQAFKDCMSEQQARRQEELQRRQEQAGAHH
UniProt Q5JTJ3: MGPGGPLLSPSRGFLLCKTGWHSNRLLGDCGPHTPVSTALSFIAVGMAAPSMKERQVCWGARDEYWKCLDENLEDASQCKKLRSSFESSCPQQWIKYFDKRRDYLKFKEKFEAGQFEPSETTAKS
UniProt Q9UIV1, whole entry, looked up: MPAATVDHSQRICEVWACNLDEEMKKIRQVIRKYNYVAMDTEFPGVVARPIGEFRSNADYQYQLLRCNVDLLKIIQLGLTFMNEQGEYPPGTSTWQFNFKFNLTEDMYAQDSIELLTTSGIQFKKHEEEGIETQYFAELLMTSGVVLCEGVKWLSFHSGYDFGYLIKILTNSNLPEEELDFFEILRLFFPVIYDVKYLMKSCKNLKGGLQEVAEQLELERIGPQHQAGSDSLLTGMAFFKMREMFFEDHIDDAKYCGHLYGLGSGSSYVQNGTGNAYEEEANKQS
UniProt P02452, whole entry, looked up: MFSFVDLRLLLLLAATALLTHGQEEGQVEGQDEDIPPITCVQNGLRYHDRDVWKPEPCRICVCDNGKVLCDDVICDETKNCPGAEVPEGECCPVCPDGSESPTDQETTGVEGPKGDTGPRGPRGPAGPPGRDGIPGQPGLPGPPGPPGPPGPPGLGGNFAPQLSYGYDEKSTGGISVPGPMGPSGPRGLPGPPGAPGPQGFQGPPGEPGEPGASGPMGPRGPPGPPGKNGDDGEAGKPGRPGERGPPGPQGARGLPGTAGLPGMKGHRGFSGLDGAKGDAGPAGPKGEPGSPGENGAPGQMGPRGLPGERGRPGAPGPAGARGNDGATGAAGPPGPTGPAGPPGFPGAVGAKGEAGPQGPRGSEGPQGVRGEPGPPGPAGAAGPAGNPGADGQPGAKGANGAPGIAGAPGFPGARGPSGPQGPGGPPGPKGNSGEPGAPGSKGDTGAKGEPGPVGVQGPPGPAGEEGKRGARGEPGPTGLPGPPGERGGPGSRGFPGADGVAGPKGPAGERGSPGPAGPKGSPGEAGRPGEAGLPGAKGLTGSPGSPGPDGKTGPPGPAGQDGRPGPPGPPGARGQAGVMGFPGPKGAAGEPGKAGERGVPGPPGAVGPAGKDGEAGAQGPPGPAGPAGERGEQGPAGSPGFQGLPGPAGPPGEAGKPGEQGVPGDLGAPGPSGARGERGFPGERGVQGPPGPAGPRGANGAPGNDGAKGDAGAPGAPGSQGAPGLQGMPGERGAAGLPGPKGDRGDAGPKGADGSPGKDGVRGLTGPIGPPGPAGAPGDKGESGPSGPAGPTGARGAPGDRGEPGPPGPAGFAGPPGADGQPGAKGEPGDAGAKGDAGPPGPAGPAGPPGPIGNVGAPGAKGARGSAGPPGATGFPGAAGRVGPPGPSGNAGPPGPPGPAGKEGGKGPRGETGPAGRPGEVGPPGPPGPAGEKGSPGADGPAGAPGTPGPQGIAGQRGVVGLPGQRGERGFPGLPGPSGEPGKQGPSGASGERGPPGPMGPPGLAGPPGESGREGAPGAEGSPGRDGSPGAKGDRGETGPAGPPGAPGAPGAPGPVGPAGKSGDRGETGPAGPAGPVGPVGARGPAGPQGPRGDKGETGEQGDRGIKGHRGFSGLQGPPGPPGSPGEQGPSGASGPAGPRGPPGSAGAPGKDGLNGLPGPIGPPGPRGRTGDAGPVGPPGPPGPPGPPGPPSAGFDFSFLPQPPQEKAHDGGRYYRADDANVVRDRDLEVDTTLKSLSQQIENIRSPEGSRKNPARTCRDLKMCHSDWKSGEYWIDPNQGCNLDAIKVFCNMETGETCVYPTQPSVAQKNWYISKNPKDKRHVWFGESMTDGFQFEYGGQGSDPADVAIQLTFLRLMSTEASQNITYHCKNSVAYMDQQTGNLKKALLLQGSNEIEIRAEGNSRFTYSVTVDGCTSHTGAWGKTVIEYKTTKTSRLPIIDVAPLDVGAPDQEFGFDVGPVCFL
UniProt O95628: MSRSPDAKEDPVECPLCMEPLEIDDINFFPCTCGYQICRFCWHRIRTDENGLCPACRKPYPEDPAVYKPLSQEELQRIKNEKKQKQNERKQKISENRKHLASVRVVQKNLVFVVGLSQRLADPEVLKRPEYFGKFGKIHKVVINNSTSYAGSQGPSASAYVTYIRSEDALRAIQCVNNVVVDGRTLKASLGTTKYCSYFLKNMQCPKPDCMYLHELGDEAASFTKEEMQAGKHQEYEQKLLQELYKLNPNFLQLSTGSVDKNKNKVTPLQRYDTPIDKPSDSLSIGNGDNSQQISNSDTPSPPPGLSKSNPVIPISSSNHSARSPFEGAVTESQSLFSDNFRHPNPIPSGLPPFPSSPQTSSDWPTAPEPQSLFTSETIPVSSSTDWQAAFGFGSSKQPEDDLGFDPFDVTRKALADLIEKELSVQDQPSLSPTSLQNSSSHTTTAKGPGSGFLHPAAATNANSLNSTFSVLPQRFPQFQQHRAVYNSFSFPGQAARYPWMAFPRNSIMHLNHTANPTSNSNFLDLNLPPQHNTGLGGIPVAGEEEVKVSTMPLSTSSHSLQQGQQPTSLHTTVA
UniProt Q86X95: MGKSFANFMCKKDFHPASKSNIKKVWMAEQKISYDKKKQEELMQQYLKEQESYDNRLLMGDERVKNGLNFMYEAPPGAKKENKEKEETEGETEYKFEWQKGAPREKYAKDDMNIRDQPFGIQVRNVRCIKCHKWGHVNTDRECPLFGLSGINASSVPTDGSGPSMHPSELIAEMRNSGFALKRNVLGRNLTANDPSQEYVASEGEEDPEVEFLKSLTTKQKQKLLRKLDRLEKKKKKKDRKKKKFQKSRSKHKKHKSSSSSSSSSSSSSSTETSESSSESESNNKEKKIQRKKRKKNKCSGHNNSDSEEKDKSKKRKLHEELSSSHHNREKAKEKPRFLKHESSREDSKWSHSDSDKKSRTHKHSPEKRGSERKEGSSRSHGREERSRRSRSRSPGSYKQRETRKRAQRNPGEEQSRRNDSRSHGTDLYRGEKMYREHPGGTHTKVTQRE
UniProt Q9NZN8, whole entry, looked up: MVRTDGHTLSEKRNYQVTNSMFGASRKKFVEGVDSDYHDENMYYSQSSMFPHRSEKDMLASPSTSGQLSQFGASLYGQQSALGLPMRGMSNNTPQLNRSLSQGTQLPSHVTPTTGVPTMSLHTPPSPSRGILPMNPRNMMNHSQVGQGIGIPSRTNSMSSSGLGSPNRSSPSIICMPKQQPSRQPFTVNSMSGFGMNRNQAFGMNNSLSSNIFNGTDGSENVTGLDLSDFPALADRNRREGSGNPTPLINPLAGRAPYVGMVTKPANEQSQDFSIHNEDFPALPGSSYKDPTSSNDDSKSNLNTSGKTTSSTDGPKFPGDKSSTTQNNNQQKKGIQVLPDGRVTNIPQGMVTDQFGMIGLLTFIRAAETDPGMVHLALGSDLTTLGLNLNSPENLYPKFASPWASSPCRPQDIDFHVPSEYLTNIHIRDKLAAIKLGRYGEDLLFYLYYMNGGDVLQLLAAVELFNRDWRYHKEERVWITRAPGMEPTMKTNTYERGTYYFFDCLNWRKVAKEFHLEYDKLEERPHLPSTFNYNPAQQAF
UniProt O76031, whole entry, looked up: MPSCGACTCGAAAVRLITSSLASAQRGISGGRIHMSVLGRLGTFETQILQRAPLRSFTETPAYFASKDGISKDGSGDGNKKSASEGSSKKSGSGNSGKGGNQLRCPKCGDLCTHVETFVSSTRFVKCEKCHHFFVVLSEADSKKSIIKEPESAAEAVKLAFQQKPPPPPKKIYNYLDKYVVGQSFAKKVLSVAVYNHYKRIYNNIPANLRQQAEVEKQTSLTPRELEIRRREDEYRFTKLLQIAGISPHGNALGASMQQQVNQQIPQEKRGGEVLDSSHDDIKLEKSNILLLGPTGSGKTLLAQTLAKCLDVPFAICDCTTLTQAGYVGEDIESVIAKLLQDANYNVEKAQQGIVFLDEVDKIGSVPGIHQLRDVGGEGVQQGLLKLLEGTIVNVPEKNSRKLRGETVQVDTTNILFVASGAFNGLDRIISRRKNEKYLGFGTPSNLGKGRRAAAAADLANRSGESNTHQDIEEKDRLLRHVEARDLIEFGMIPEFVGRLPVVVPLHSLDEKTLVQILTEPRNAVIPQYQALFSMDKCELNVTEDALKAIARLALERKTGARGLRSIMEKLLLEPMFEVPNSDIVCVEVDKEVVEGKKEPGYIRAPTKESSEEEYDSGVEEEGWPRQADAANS
UniProt Q15417: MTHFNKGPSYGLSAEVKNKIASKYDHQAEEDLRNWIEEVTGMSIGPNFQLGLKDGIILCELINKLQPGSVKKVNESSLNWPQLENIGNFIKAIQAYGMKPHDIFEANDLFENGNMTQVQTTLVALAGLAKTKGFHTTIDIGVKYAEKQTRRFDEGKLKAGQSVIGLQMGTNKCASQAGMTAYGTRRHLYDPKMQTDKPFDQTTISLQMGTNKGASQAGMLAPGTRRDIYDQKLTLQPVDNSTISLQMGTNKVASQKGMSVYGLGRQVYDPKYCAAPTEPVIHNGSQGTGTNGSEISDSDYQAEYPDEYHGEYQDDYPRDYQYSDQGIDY
UniProt P39060, whole entry, looked up: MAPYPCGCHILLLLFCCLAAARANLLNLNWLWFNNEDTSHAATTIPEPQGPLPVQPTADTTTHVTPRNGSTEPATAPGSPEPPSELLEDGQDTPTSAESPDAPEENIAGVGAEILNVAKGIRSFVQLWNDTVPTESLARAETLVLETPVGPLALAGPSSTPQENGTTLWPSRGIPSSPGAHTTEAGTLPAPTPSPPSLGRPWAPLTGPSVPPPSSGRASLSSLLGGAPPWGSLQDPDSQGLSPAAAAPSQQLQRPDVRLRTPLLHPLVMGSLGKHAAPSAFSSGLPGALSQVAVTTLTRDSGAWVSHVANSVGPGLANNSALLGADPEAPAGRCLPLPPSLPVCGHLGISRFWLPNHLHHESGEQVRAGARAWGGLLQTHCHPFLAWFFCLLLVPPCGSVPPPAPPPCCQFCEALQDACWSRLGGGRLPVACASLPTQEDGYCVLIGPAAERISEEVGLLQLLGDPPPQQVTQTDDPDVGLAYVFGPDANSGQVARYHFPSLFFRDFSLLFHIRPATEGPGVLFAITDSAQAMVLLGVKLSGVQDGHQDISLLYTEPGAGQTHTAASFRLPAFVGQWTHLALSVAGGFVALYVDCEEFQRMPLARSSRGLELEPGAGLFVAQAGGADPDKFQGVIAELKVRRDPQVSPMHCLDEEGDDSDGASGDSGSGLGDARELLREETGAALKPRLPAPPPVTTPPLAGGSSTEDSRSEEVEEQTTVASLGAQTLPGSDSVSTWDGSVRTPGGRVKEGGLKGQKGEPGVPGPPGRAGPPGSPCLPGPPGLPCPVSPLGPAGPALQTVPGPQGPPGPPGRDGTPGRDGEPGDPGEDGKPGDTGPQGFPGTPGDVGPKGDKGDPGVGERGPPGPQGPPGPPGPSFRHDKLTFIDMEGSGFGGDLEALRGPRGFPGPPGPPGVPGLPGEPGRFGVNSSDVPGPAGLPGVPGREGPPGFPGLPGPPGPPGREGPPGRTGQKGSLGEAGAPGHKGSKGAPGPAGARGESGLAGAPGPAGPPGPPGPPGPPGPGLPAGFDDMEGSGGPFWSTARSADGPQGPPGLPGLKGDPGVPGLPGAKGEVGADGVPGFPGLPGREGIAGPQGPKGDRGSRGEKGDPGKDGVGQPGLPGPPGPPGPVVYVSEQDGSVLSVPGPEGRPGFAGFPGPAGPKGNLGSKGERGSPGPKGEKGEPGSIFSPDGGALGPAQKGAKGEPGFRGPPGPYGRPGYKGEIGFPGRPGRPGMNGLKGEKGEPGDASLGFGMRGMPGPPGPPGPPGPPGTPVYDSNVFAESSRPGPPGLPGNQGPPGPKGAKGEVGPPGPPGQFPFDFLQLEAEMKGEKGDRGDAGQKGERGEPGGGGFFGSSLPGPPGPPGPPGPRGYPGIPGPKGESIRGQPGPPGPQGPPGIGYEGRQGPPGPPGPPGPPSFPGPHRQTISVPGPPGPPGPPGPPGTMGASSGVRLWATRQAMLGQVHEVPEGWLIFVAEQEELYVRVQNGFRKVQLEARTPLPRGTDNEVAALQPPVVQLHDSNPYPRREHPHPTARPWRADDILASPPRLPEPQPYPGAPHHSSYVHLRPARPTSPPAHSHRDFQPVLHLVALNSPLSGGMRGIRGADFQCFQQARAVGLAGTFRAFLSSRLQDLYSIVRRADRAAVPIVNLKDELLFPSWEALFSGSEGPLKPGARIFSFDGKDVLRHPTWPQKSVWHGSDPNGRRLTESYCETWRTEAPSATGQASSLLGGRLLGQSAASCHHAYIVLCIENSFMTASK

Legend:
Assay in all cases: log2 fold change, soluble protein after heating vs DMSO (PISA); higher = thermal stabilisation; K562 cells, 10 uM, 30 min; active = over 0.2 and 3.5 SD of the protein, either way, in both replicates (recomputed)
[1] = compound: CC1=C(C=C(C=C1)NC(=O)C2=CC(=CC=C2)C(C)(C)C#N)NC3=CC4=C(C=C3)N=CN(C4=O)C
In short: (§1)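 Soluble protein was defined as the supernatant after 21,000xg for 90 min. It came from K562 cells at 2×10^6 cells/mL given 10 μM compound for 30 min, heated in aliquots for 3 min across 48°C-58°C, pooled, and extracted in PBS with 0.5% NP-40 at 4°C, and was quantified by TMTpro 16plex LC-MS/MS with equalised channel sums. Thermal stability against control samples, from duplicates, is reported as log2 fold change.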

[2] = compound: CC1=C(C=C(C=C1)NC(=O)C2=CC(=CC=C2)N(C)C)NC(=O)C3=CC=C(C=C3)O
In short: as §1

[3] = compound: CC1=CC=C(C=C1)SC2=C3C=C(SC3=CN=C2)C(=O)N
In short: as §1

[4] = compound: CC1=NC(=CC=C1)C2=C(N=C(N2)C(C)(C)C)C3=CC4=NC=CN=C4C=C3
In short: as §1

Nexturastat A = compound: CCCCN(Cc1ccc(C(=O)NO)cc1)C(=O)Nc1ccccc1 [Nexturastat A]
In short: as §1

vemurafenib = compound: CCCS(=O)(=O)Nc1ccc(F)c(C(=O)c2c[nH]c3ncc(-c4ccc(Cl)cc4)cc23)c1F [vemurafenib]
In short: as §1

[5] = compound: CCCS(=O)(=O)Nc1ccc(F)c(C(=O)c2c[nH]c3ncc(Cl)cc23)c1F
In short: as §1

[6] = compound: CCCc1cc(C)[nH]c(=O)c1CNC(=O)c1cc(-c2ccnc(N3CCN(C)CC3)c2)cc2c1cnn2C(C)C
In short: as §1

givinostat = compound: CCN(CC)Cc1ccc2cc(COC(=O)Nc3ccc(C(=O)NO)cc3)ccc2c1 [givinostat]
In short: as §1

barasertib = compound: CCN(CCCOc1ccc2c(Nc3cc(CC(=O)Nc4cccc(F)c4)[nH]n3)ncnc2c1)CCOP(=O)(O)O [barasertib]
In short: as §1

[7] = compound: CC[C@@H]1C(=O)N(C)c2cnc(Nc3ccc(C(=O)NC4CCN(C)CC4)cc3OC)nc2N1C1CCCC1
In short: as §1

volasertib = compound: CC[C@@H]1C(=O)N(C)c2cnc(Nc3ccc(C(=O)N[C@H]4CC[C@H](N5CCN(CC6CC6)CC5)CC4)cc3OC)nc2N1C(C)C [volasertib]
In short: as §1

[8] = compound: CC[C@H](C)N1C=C(C2=C(C=C(C=C21)C3=CN=C(C=C3)N4CCNCC4)C(=O)NCC5=C(C=C(NC5=O)C)C)C
In short: as §1

epoxomicin = compound: CC[C@H](C)[C@@H](C(=O)N[C@@H]([C@@H](C)O)C(=O)N[C@@H](CC(C)C)C(=O)[C@]1(CO1)C)NC(=O)[C@H]([C@@H](C)CC)N(C)C(=O)C [epoxomicin]
In short: as §1

[9] = compound: CCn1cc(-c2ccnc3[nH]c(-c4cccc(CN(C)C)c4)cc23)c(-c2ccc(NC(=O)N(C)C)cc2)n1
In short: as §1

[10] = compound: CN(C)CC(=O)Nc1ccc2[nH]c(=O)c3ccccc3c2c1
In short: as §1

[11] = compound: CN1C2=C(C3=C1C(=O)N(N=C3)CC4=CC(=CC=C4)N)SC(=C2)S(=O)C
In short: as §1

[12] = compound: CN1CCC(CNc2ccc3ncc(-c4cccc(OC(F)(F)F)c4)n3n2)CC1
In short: as §1

[13] = compound: CCn1c(C(=O)N(C2CC2)C2CC2)cc2c3c(ncn3C)c(Nc3cc(C)n(C)n3)nc21
In short: as §1

rosiglitazone = compound: CN(CCOC1=CC=C(C=C1)C[C@H]2C(=O)NC(=O)S2)C3=CC=CC=N3 (racemic) [rosiglitazone]
In short: as §1

Measured: log2 fold change

CLUH, A0A494C0R8
inactive: [1] 0.008 | [2] -0.077 | [3] -0.02 | [4] 0.124 | Nexturastat A 0.068 | vemurafenib -0.121 | [5] -0.072 | [6] 0.016 | givinostat 0.092 | barasertib -0.043 | [7] 0.183 | volasertib 0.42 | [8] 0.006 | epoxomicin -0.017 | [9] 0.078 | [10] 0.116 | [11] 0.101 | [12] 0.203

COA4 isoform 2 (UniProt Q9NYJ1)
inactive: [1] 0.066 | [2] -0.304 | [3] 0.054 | [4] -0.058 | Nexturastat A 0 | [5] 0.029 | [6] -0.013 | givinostat -0.007 | barasertib 0.083 | [7] 0.035 | volasertib 0.006 | [8] -0.044 | epoxomicin 0.45 | [13] -0.007 | [9] 0.122 | rosiglitazone 0.025 | [11] 0.072 | [12] 0.094

COA6 isoform 2 (UniProt Q5JTJ3)
inactive: [1] -0.054 | [2] -0.012 | [4] 0.036 | Nexturastat A 0.007 | vemurafenib -0.041 | [5] -0.009 | [6] -0.089 | givinostat -0.02 | barasertib -0.042 | [7] 0.045 | volasertib 0.04 | [8] -0.004 | epoxomicin 0.079 | [9] 0.045 | [10] -0.023 | [11] -0.16 | [12] 0.022
active: [3] 0.767

CNOT7 (UniProt Q9UIV1)
active: volasertib -0.305
inactive: [1] 0.046 | [2] -0.043 | [3] 0.075 | [4] 0.014 | Nexturastat A 0.048 | vemurafenib -0.068 | [5] 0.053 | [6] -0.011 | givinostat -0.026 | barasertib 0.004 | [7] -0.086 | [8] -0.049 | epoxomicin -0.053 | [9] -0.052 | [10] -0.121 | [11] 0.021 | [12] -0.082

COL1A1 (UniProt P02452)
inactive: [1] -0.215 | [2] 0.567 | [3] -0.098 | [4] -0.194 | Nexturastat A 0.079 | vemurafenib -0.189 | [5] -0.401 | givinostat -0.151 | barasertib -0.036 | [7] -0.098 | volasertib 0.014 | epoxomicin -0.391 | [13] -0.135 | [10] -0.113 | rosiglitazone 0.247 | [11] 0.29

CHPF (UniProt Q8IZ52)
inactive: [1] 0.061 | [2] 0.061 | [3] 0.006 | [4] -0.205 | Nexturastat A -0.12 | vemurafenib -0.126 | [5] -0.135 | [6] 0.125 | barasertib -0.029 | [7] -0.025 | volasertib -0.053 | [8] -0.085 | epoxomicin -0.11 | [10] -0.182 | rosiglitazone 0.072 | [11] 0.171

CNOT1 (UniProt A5YKK6)
inactive: [1] 0.016 | [2] -0.007 | [3] -0.027 | [4] 0.014 | Nexturastat A 0.062 | vemurafenib 0.044 | [5] 0.046 | [6] 0.013 | givinostat 0.044 | barasertib 0.044 | [7] -0.051 | [8] 0.056 | epoxomicin -0.028 | [9] 0.028 | [10] 0.061 | [11] 0.011 | [12] -0.082
active: volasertib -0.312

CNOT4 isoform 6 (UniProt O95628)
inactive: [1] -0.056 | [2] -0.012 | [3] 0.005 | [4] 0.023 | Nexturastat A -0.122 | vemurafenib -0.014 | [5] -0.007 | [6] -0.069 | givinostat -0.064 | barasertib 0.007 | [7] -0.008 | volasertib -0.109 | [8] 0.031 | epoxomicin 0.006 | [9] -0.056 | [10] 0.003 | [11] 0.028 | [12] -0.095

CIR1 (UniProt Q86X95)
inactive: [1] -0.04 | [2] -0.38 | [3] 0.047 | [4] -0.018 | Nexturastat A 0.199 | vemurafenib -0.156 | [5] -0.129 | [6] 0.047 | givinostat -0.015 | barasertib -0.105 | [7] 0 | volasertib 0.049 | epoxomicin -0.212 | [9] 0.055 | [10] 0.142 | [11] 0.234 | [12] -0.458

CHURC1-FNTB (UniProt B4DL54)
inactive: [1] -0.071 | [2] -0.034 | [3] 0.014 | [4] -0.02 | Nexturastat A -0.04 | vemurafenib 0.04 | [5] 0.042 | [6] -0.113 | givinostat -0.08 | barasertib -0.011 | [7] -0.111 | volasertib -0.249 | epoxomicin 0.073 | [13] 0.047 | [9] 0.008 | [10] -0.047 | rosiglitazone 0.027 | [12] -0.149

CNOT2 (UniProt Q9NZN8)
inactive: [1] -0.075 | [2] 0.136 | [3] -0.027 | [4] 0.008 | Nexturastat A 0.017 | vemurafenib -0.03 | [5] 0.006 | [6] -0.018 | givinostat 0.059 | barasertib 0.01 | [7] -0.035 | volasertib -0.168 | [8] 0.021 | epoxomicin -0.034 | [9] 0.085 | [10] 0.015 | [11] 0.062 | [12] -0.027

CMTR1 (UniProt Q8N1G2)
inactive: [1] -0.012 | [2] -0.003 | [3] -0.021 | [4] 0.083 | Nexturastat A -0.069 | vemurafenib 0.03 | [5] 0.005 | [6] -0.004 | givinostat -0.062 | barasertib 0.054 | [7] -0.053 | volasertib -0.199 | [8] 0.024 | epoxomicin 0.039 | [9] -0.049 | [10] 0.038 | [11] -0.055 | [12] -0.037

CLPX (UniProt O76031)
inactive: [1] 0.022 | [2] -0.013 | [3] -0.008 | [4] 0.012 | Nexturastat A 0 | vemurafenib -0.011 | [5] -0.013 | [6] -0.002 | givinostat 0.02 | barasertib -0.013 | [7] 0.039 | volasertib 0.192 | [8] -0.06 | epoxomicin -0.019 | [9] -0.022 | [10] 0.026 | [11] -0.01 | [12] 0.072

CLCN3 isoform 2 (UniProt P51790)
inactive: [1] -0.055 | [2] 0.002 | [3] 0.008 | [4] 0.061 | Nexturastat A -0.026 | vemurafenib 0 | [5] 0.03 | [6] -0.023 | givinostat 0.029 | barasertib -0.006 | [7] -0.047 | volasertib -0.113 | [8] 0.026 | epoxomicin 0.003 | [9] -0.032 | [10] 0.024 | [11] -0.028 | [12] -0.079

CNN3 (UniProt Q15417)
inactive: [1] 0.014 | [3] 0.064 | Nexturastat A 0.015 | vemurafenib 0.034 | [5] 0.07 | [6] -0.018 | givinostat 0.073 | barasertib 0.047 | [7] -0.08 | [8] 0.072 | epoxomicin 0.066 | [9] 0.008 | [10] 0.106 | [11] -0.018 | [12] -0.055
active: volasertib -0.368

CMIP (UniProt Q8IY22)
inactive: [1] -0.075 | [2] -0.012 | Nexturastat A 0.418 | [6] 0.153 | barasertib -0.064 | [7] 0.03 | epoxomicin 0.008 | [9] 0.039 | rosiglitazone 0.059 | [12] -0.063

COL12A1 (UniProt Q99715)
inactive: [1] -0.511 | [2] 0.092 | [3] 0.122 | Nexturastat A 0.266 | [5] 0.062 | volasertib -0.312 | epoxomicin -0.004

CNTRL (UniProt Q7Z7A1)
inactive: [1] -0.062 | [2] 0.043 | vemurafenib 0.115 | [7] -0.035 | [8] -0.012 | [10] -0.145 | [11] 0.341

Copied from the results shown (4 entries):
CLUH, A0A494C0R8
inactive: [1] 0.008 | [2] -0.077 | [3] -0.02 | [4] 0.124 | Nexturastat A 0.068 | vemurafenib -0.121 | [5] -0.072 | [6] 0.016 | givinostat 0.092 | barasertib -0.043 | [7] 0.183 | volasertib 0.42 | [8] 0.006 | epoxomicin -0.017 | [9] 0.078 | [10] 0.116 | [11] 0.101 | [12] 0.203

COA4 isoform 2 (UniProt Q9NYJ1)
inactive: [1] 0.066 | [2] -0.304 | [3] 0.054 | [4] -0.058 | Nexturastat A 0 | [5] 0.029 | [6] -0.013 | givinostat -0.007 | barasertib 0.083 | [7] 0.035 | volasertib 0.006 | [8] -0.044 | epoxomicin 0.45 | [13] -0.007 | [9] 0.122 | rosiglitazone 0.025 | [11] 0.072 | [12] 0.094

COA6 isoform 2 (UniProt Q5JTJ3)
inactive: [1] -0.054 | [2] -0.012 | [4] 0.036 | Nexturastat A 0.007 | vemurafenib -0.041 | [5] -0.009 | [6] -0.089 | givinostat -0.02 | barasertib -0.042 | [7] 0.045 | volasertib 0.04 | [8] -0.004 | epoxomicin 0.079 | [9] 0.045 | [10] -0.023 | [11] -0.16 | [12] 0.022
active: [3] 0.767

CNOT7 (UniProt Q9UIV1)
active: volasertib -0.305
inactive: [1] 0.046 | [2] -0.043 | [3] 0.075 | [4] 0.014 | Nexturastat A 0.048 | vemurafenib -0.068 | [5] 0.053 | [6] -0.011 | givinostat -0.026 | barasertib 0.004 | [7] -0.086 | [8] -0.049 | epoxomicin -0.053 | [9] -0.052 | [10] -0.121 | [11] 0.021 | [12] -0.082

The list continues.

COL18A1 (UniProt P39060)
inactive: [1] -0.108 | [2] 0.039 | [3] 0.042 | Nexturastat A 0.228 | vemurafenib 0.208 | [5] -0.062 | [6] -0.058 | givinostat -0.037 | barasertib -0.082 | [7] 0.036 | volasertib -0.086 | [8] 0.08 | epoxomicin -0.106 | [13] 0.007 | [9] 0.108 | [10] -0.114 | rosiglitazone -0.036 | [11] 0.154 | [12] 0.198
